Laboratory results: PubChem BioAssay AID652243 (Drosophila RNAi Screening Center, 2013)
The deposit covers about 24,000 reagents; below is a random part of those that have a named target and a result. In the full data, 246 (1%) were called active. 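Plates not normalised; calls are printed but the firefly/Renilla ratio behind them is not deposited; fold cut for lowering reported inconsistently.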 The raw values are shown without normalisation. A plus sign joins genes that one reagent is predicted to hit. Reagent sequences are not shown. The record does not give: the amount of reagent.

Purpose: 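Knock-downs that decrease or increase androgen receptor reporter signal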 (primary screen)
System: Drosophila S2R+ cells
Knock-down reagent: long dsRNA against Drosophila genes
Time to read-out: 72 h (48 h, then 24 h hormone)
Challenge: synthetic androgen R1881 at 10 nM for 24 h
Detection: 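Per-well raw luminescence of the androgen-driven firefly reporter and of the Renilla control, two replicates each, without normalisation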
Reading the numbers: firefly reporter light: higher = more light from androgen-responsive reporter; Renilla control light: higher = more constitutive control signal (cell number, transfection)
Active means: 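Across duplicate plates, a knock-down whose log firefly/Renilla ratio shifted a set fold down or up from the GFP/LacZ control mean was a hit; the downward cut appears as both 1.5 and 3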
Calls: active = hit: reporter lowered or raised; inactive = no hit

no.	predicted target	dsRNA	firefly reporter light, replicate 1	firefly reporter light, replicate 2	Renilla control light, replicate 1	Renilla control light, replicate 2	activity call
1	CG3032	DRSC18266	1.64e5	1.48e5	2.51e6	1.93e6	inactive
2	CG3032	DRSC24426	9.19e5	7.61e5	9.83e5	1.08e6	inactive
3	CG16787	DRSC04282	2.86e5	4.06e5	1.62e6	1.74e6	inactive
4	CG31627	DRSC22143	1.02e6	9.98e5	2.28e6	1.67e6	inactive
5	CG9890	DRSC04590	2.29e5	4.41e5	1.37e6	1.48e6	inactive
6	CG9890	DRSC25594	1.28e6	1.09e6	9.79e5	1.03e6	inactive
7	tous	DRSC04464	5.93e5	6.90e5	1.35e6	8.58e5	inactive
8	MagR	DRSC20092	2.85e5	2.28e5	2.61e6	1.52e6	inactive
9	CG31913	DRSC00892	1.24e5	67505	3.97e5	3.20e5	inactive
10	CG31913	DRSC27532	1.61e5	1.72e5	6.16e5	7.26e5	inactive
11	CG17841	DRSC17737	2.60e5	2.60e5	9.08e5	7.89e5	inactive
12	CG17841	DRSC28821	4.90e5	4.99e5	1.23e6	1.46e6	inactive
13	CG17839	DRSC10290	1.58e5	1.56e5	1.74e6	1.49e6	inactive
14	CG17839	DRSC10291	1.01e5	1.27e5	1.98e6	1.59e6	inactive
15	nanos	DRSC17018	85606	1.12e5	1.53e6	1.77e6	inactive
16	nanos	DRSC25268	3.44e5	2.16e5	4.18e5	4.57e5	inactive
17	Rab30	DRSC03137	1.48e5	1.38e5	1.97e6	1.83e6	inactive
18	Rab30	DRSC23953	2.60e5	4.28e5	4.84e5	5.94e5	inactive
19	Mf	DRSC16120	2.34e5	1.56e5	3.45e6	2.43e6	inactive
20	CG12964	DRSC23210	4.62e5	5.26e5	3.09e5	3.32e5	inactive
21	CG12964	DRSC29427	5.58e5	6.30e5	1.08e6	1.08e6	inactive
22	CG9503	DRSC20186	3.17e5	4.27e5	3.90e6	4.64e6	inactive
23	CG9503	DRSC21766	6.90e5	6.16e5	1.65e6	1.61e6	inactive
24	CG30039	DRSC21794	4.32e5	5.02e5	1.70e6	2.66e6	inactive
25	CG30039	DRSC29391	9.32e5	1.02e6	1.38e6	1.38e6	inactive
26	NetB	DRSC20262	97905	97543	6.46e5	6.93e5	inactive
27	NetB	DRSC26437	2.50e5	3.21e5	5.05e5	3.55e5	inactive
28	cv-d	DRSC16522	84424	1.28e5	5.94e5	6.67e5	inactive
29	cv-d	DRSC16524	1.09e5	1.40e5	1.67e6	1.88e6	inactive
30	cv-d	DRSC16526	2.09e5	1.66e5	3.04e6	3.36e6	inactive
31	CG43795	DRSC04192	3.55e5	4.36e5	2.28e6	1.48e6	inactive
32	CG43795	DRSC04193	3.05e5	3.23e5	1.97e6	2.16e6	inactive
33	CG43795	DRSC04194	3.71e5	3.73e5	3.04e6	2.29e6	inactive
34	CG43795	DRSC04309	4.31e5	3.18e5	2.52e6	1.59e6	inactive
35	CG43795	DRSC04310	1.99e5	2.30e5	1.67e6	1.70e6	inactive
36	CG43795	DRSC04497	1.72e5	2.97e5	1.45e6	1.35e6	inactive
37	CG43795	DRSC22826	3.61e5	6.04e5	7.55e5	1.31e6	inactive
38	CG43795	DRSC25149	8.63e5	8.59e5	7.88e5	9.36e5	inactive
39	CG43795	DRSC26752	4.93e5	3.80e5	1.10e6	8.91e5	inactive
40	CCKLR-17D1	DRSC20011	4.25e5	3.54e5	1.72e6	9.01e5	inactive
41	CCKLR-17D1	DRSC20012	1.35e5	59587	5.84e5	2.44e5	inactive
42	CCKLR-17D1	DRSC28081	4.94e5	3.34e5	1.78e6	1.49e6	inactive
43	Ccp84Ab	DRSC12587	1.25e5	1.08e5	1.75e6	1.39e6	inactive
44	Ccp84Ab	DRSC25096	7.29e5	6.83e5	1.26e6	1.38e6	inactive
45	pAbp	DRSC07659	4.04e5	5.69e5	1.41e6	1.31e6	inactive
46	Blm	DRSC16911	1.20e5	42053	6.52e5	2.67e5	inactive
47	CG32987	DRSC22373	1.10e6	1.08e6	1.74e6	1.76e6	inactive
48	CG32987	DRSC28687	8.97e5	5.90e5	1.83e6	1.54e6	inactive
49	Vps13	DRSC06817	2.99e5	2.93e5	1.37e6	1.13e6	inactive
50	Vps13	DRSC29275	6.63e5	5.68e5	1.15e6	1.12e6	inactive
51	CG6962	DRSC16153	42765	47007	3.90e5	4.77e5	inactive
52	CG6962	DRSC28894	5.38e5	6.07e5	9.83e5	1.28e6	inactive
53	TkR86C	DRSC16880	2.41e5	2.52e5	2.76e6	2.83e6	inactive
54	Atg2	DRSC08273	1.42e6	7.54e5	2.60e6	1.47e6	inactive
55	VAChT + ChAT	DRSC13312	93885	1.60e5	2.84e5	3.52e5	inactive
56	CG15211	DRSC19657	3.41e5	3.77e5	2.59e6	2.40e6	inactive
57	CG15249	DRSC17978	4.32e5	3.86e5	3.97e6	3.27e6	inactive
58	CG33920	DRSC37813	9.02e5	8.65e5	1.47e6	2.06e6	inactive
